Measured values taken from the supplement of paper PMC7238544.
Structures can show the parent of a compound that is named as a salt. ± gives the standard deviation of the averaged measurements. The list shows a part of the results. The data scatter; read single values as rough.

Columns and labels:
hAMSC donor 1 [1] = assay: Hoechst total cell count ratio vs vehicle control; higher = more cells (less toxicity)
hAMSC donor 2 [2] = assay: as above
hAMSC donor 1 [3] = assay: transgenic luciferase activity (RLU/mg protein) fold change vs vehicle control (ratio); higher = more transgene expression
hAMSC donor 1 [4] = assay: transfection efficiency (EGFP+ cells / Hoechst count) fold change vs vehicle control (ratio); higher = enhanced transfection
hAMSC donor 2 [5] = assay: as above
hAMSC donor 2 [6] = assay: transgenic luciferase activity (RLU/mg protein) fold change vs vehicle control (ratio); hAMSC are human adipose-derived mesenchymal stem cells given an EGFP-luciferase plasmid by lipofection; higher = more transgene expression
[7] = priming compound concentration 0.2 µM
[8] = priming compound concentration 1.7 µM
[9] = priming compound concentration 13 µM

Row | SMILES | Hoechst total cell count ratio (hAMSC donor 1 [1]; [7]) | Hoechst total cell count ratio (hAMSC donor 1 [1]; [8]) | Hoechst total cell count ratio (hAMSC donor 1 [1]; [9]) | Hoechst total cell count ratio (hAMSC donor 2 [2]; [7]) | Hoechst total cell count ratio (hAMSC donor 2 [2]; [8]) | Hoechst total cell count ratio (hAMSC donor 2 [2]; [9]) | transgenic luciferase activity (hAMSC donor 1 [3]; [9]) | transfection efficiency (hAMSC donor 1 [4]; [7]) | transfection efficiency (hAMSC donor 1 [4]; [8]) | transfection efficiency (hAMSC donor 1 [4]; [9]) | transfection efficiency (hAMSC donor 2 [5]; [7]) | transfection efficiency (hAMSC donor 2 [5]; [8]) | transfection efficiency (hAMSC donor 2 [5]; [9]) | transgenic luciferase activity (hAMSC donor 2 [6]; [9]) | transgenic luciferase activity (hAMSC donor 2 [6]; [8]) | transgenic luciferase activity (hAMSC donor 1 [3]; [7]) | transgenic luciferase activity (hAMSC donor 1 [3]; [8])
1 | CN(CCCN1c2ccccc2CCc2ccccc21)CC(=O)c1ccc(Cl)cc1 [Lofepramine] | 1.35 ± 0.19 | 1.14 ± 0.28 | 1.02 ± 0.17 | 1.22 ± 0.25 | 1.05 ± 0.07 | 1.25 ± 0.078 | 0.734 ± 0.2 | 1.04 ± 0.13 | 1.35 ± 0.35 | 1.61 ± 0.49 | 1.03 ± 0.14 | 1.22 ± 0.062 | 1.17 ± 0.22 |  |  |  | 
2 | NC[C@H]1CC[C@H](C(=O)Oc2ccc(CCC(=O)O)cc2)CC1 [Cetraxate hydrochloride] | 1.11 ± 0.13 | 1.38 ± 0.14 | 1.01 ± 0.043 | 1.28 ± 0.044 | 1.25 ± 0.061 | 1.02 ± 0.1 |  | 0.595 ± 0.23 | 0.866 ± 0.19 | 1.38 ± 0.36 | 0.965 ± 0.046 | 1.09 ± 0.048 | 1.18 ± 0.35 | 0.518 ± 0.066 |  |  | 
3 | O=C1CN2Cc3c(ccc(Cl)c3Cl)N=C2N1 [Anagrelide hydrochloride] | 1.6 ± 0.23 | 1.43 ± 0.13 | 1.41 ± 0.15 | 1.21 ± 0.12 | 1.17 ± 0.014 | 1.44 ± 0.2 |  | 1.1 ± 0.25 | 1.1 ± 0.2 | 1.09 ± 0.17 | 0.971 ± 0.092 | 1.06 ± 0.22 | 1.15 ± 0.12 |  | 0.46 ± 0.099 |  | 
4 | COC(=O)C1=C(C)NC(C)=C(C(=O)OC2CCCN(Cc3ccccc3)C2)C1c1cccc([N+](=O)[O-])c1 (centres undefined) [Benidipine hydrochloride] | 1.12 ± 0.16 | 1.12 ± 0.18 | 1.06 ± 0.095 | 1.02 ± 0.23 | 1.03 ± 0.14 | 0.891 ± 0.069 |  | 1.09 ± 0.11 | 1.51 ± 0.21 | 1.28 ± 0.4 | 1.09 ± 0.23 | 1.25 ± 0.065 | 1.13 ± 0.14 | 1.09 ± 0.26 |  |  | 
5 | O=C(O)CCNC(=O)c1ccc(/N=N/c2ccc(O)c(C(=O)O)c2)cc1 [Balsalazide] | 1.16 ± 0.15 | 1.12 ± 0.11 | 1 ± 0.043 | 0.913 ± 0.052 | 1.2 ± 0.15 | 1.29 ± 0.17 |  | 1.04 ± 0.093 | 1.05 ± 0.18 | 1.09 ± 0.15 | 1.17 ± 0.12 | 1.03 ± 0.29 | 0.959 ± 0.16 |  |  | 1.21 ± 0.7 | 
6 | CCC(C)(C)C(=O)O[C@H]1C[C@@H](C)C=C2C=C[C@H](C)[C@H](CC[C@@H]3C[C@@H](O)CC(=O)O3)[C@H]21 [Simvastatin] |  |  |  |  |  |  |  | 1.48 ± 0.3 | 1.3 ± 0.081 | 1.6 ± 0.34 | 1.47 ± 0.28 | 1.12 ± 0.24 | 1.86 ± 0.33 |  |  |  | 1.04 ± 0.36
7 | COc1ccccc1OCC(O)CN1CCN(CC(=O)Nc2c(C)cccc2C)CC1 (centres undefined) [Ranolazine dihydrochloride] | 1.58 ± 0.32 | 1.26 ± 0.32 | 1.22 ± 0.22 | 1.11 ± 0.11 | 1.19 ± 0.029 | 1.28 ± 0.1 |  | 1.03 ± 0.35 | 1.38 ± 0.21 | 1.25 ± 0.1 | 1.11 ± 0.16 | 1.1 ± 0.074 | 1.21 ± 0.16 |  | 0.376 ± 0.048 |  | 
8 | COc1nc(C)nc(Cl)c1NC1=NCCN1 [Moxonidine hydrochloride] | 1.58 ± 0.21 | 1.55 ± 0.11 | 1.38 ± 0.18 | 1.1 ± 0.15 | 0.949 ± 0.13 | 1.18 ± 0.27 |  | 0.916 ± 0.092 | 1.03 ± 0.11 | 1.18 ± 0.16 | 1.21 ± 0.18 | 1.21 ± 0.19 | 1.21 ± 0.11 |  | 0.683 ± 0.096 |  | 
9 | O=[N+]([O-])c1cccc2cn[nH]c12 [7-Nitroindazole] | 1.18 ± 0.096 | 1.08 ± 0.042 | 1.18 ± 0.071 | 1.25 ± 0.11 | 1.32 ± 0.09 | 1.19 ± 0.1 | 0.948 ± 0.51 | 0.766 ± 0.12 | 0.778 ± 0.098 | 0.824 ± 0.06 | 0.877 ± 0.12 | 0.815 ± 0.11 | 1 ± 0.11 |  |  |  | 
10 | O=C1Nc2ccc(Cl)cc2[C@@](C#CC2CC2)(C(F)(F)F)O1 [Efavirenz] | 1.31 ± 0.15 | 1.27 ± 0.075 | 1.18 ± 0.091 | 0.786 ± 0.088 | 0.998 ± 0.14 | 0.932 ± 0.04 |  | 1.11 ± 0.32 | 1.17 ± 0.088 | 1.06 ± 0.18 | 1.28 ± 0.14 | 1.19 ± 0.19 | 1.25 ± 0.091 | 0.907 ± 0.16 |  |  | 
11 | CCc1ccc(CCOc2ccc(CC3SC(=O)NC3=O)cc2)nc1 (centres undefined) [Pioglitazone hydrochloride] | 1.52 ± 0.14 | 1.37 ± 0.17 | 2.09 ± 0.21 | 1.05 ± 0.1 | 1.19 ± 0.071 | 1.06 ± 0.14 |  | 1.14 ± 0.037 | 0.925 ± 0.36 | 0.478 ± 0.053 | 1.07 ± 0.18 | 0.875 ± 0.086 | 0.949 ± 0.076 | 0.998 ± 0.22 |  |  | 
12 | Cc1c(C(=O)NN2CCCCC2)nn(-c2ccc(Cl)cc2Cl)c1-c1ccc(I)cc1 |  |  |  |  |  |  |  | 0.845 ± 0.11 | 0.912 ± 0.28 | 0.579 ± 0.19 | 0.927 ± 0.1 | 1.59 ± 0.23 | 0.875 ± 0.061 | 0.929 ± 0.29 |  |  | 
13 | CC(=O)[C@H]1CC[C@H]2[C@@H]3CCC4=CC(=O)CC[C@]4(C)[C@H]3CC[C@]12C [Progesterone] | 1.22 ± 0.044 | 1.34 ± 0.33 | 1.23 ± 0.05 | 1.01 ± 0.044 | 1.23 ± 0.025 | 0.99 ± 0.11 |  | 0.762 ± 0.069 | 0.766 ± 0.22 | 0.849 ± 0.17 | 1.01 ± 0.1 | 0.932 ± 0.038 | 1.24 ± 0.13 | 1.06 ± 0.058 |  |  | 
14 | CC(C(=O)O)c1ccc(CC2CCCC2=O)cc1 (centres undefined) [Loxoprofen sodium] | 1.17 ± 0.2 | 1.06 ± 0.19 | 1.11 ± 0.15 | 1.22 ± 0.036 | 1.31 ± 0.088 | 1.01 ± 0.036 |  | 1.39 ± 0.12 | 0.989 ± 0.063 | 0.803 ± 0.22 | 1.08 ± 0.12 | 1.14 ± 0.016 | 1.15 ± 0.29 | 0.849 ± 0.19 |  |  | 
15 | CN(C)CC[C@@H](c1ccc(Cl)cc1)c1ccccn1 [Dexchlorpheniramine maleate] | 1.28 ± 0.18 | 1.19 ± 0.2 | 1.26 ± 0.084 | 1.08 ± 0.1 | 1.08 ± 0.11 | 0.924 ± 0.072 |  | 1.12 ± 0.22 | 1.15 ± 0.31 | 1.16 ± 0.066 | 0.992 ± 0.19 | 1.45 ± 0.12 | 1.24 ± 0.28 | 0.971 ± 0.052 |  |  | 
16 | Nc1nc(O)c2ncn(CCC(CO)CO)c2n1 [Penciclovir] | 1.19 ± 0.12 | 1.12 ± 0.016 | 1.31 ± 0.043 | 1.36 ± 0.2 | 1.13 ± 0.068 | 1.14 ± 0.039 |  | 1.24 ± 0.041 | 1.05 ± 0.12 | 0.653 ± 0.22 | 0.914 ± 0.22 | 1.18 ± 0.18 | 1.19 ± 0.19 | 0.808 ± 0.2 |  |  | 
17 | CN[C@H]1CC[C@@H](c2ccc(Cl)c(Cl)c2)c2ccccc21 [Sertraline hydrochloride] | 1.21 ± 0.076 | 1.34 ± 0.23 | 1.56 ± 0.098 | 1.2 ± 0.23 | 1.29 ± 0.14 | 1.48 ± 0.051 |  | 1.22 ± 0.32 | 1.13 ± 0.26 | 0.718 ± 0.14 | 1.03 ± 0.025 | 1.16 ± 0.074 | 0.905 ± 0.15 |  | 0.448 ± 0.081 |  | 

Single entries from the list:
For Hoechst total cell count ratio (hAMSC donor 2 [2]; [8]), `COc1nc(C)nc(Cl)c1NC1=NCCN1` [Moxonidine hydrochloride] is listed with 0.949 ± 0.13
For Hoechst total cell count ratio (hAMSC donor 1 [1]; [7]), `COc1ccccc1OCC(O)CN1CCN(CC(=O)Nc2c(C)cccc2C)CC1` (centres undefined) [Ranolazine dihydrochloride] is listed with 1.58 ± 0.32
